Results taken from PubChem BioAssay AID540276 (National Center for Advancing Translational Sciences (NCATS), 2011).
In all, about 300,000 compounds went through this assay and about 5,400 (1.8%) were called active. This list was built around the results that the source calls inconclusive (neither active nor inactive); the mix of calls is not that of the screen. Calls follow the shape of the full dose curve; tested in HEK293 cells. Potencies beside an inconclusive call are fits to weak or partial responses and may not hold up.

experiment: qHTS for inhibitors of binding or entry into cells for Marburg Virus; settings: Marburg virus pseudotyped entry inhibition, cell reporter; activity change, negative = inhibition: at 37.8 µM (top of the series) unless noted
% is scaled to controls: 0 for no effect and ±100 for the full control effect; potency is read from the fitted curve at half-maximal effect.

SMILES	activity change, negative = inhibition	Potency
COc1ccc(NC(=O)Cc2nnc(SCC(=O)NC3CCCCC3C)n2C)cc1 (stereo unspecified)	inactive: 9.83% [at 46.1 µM]	–
COc1ccc(Cn2c(N)c(C(=O)NCc3ccco3)c3nc4ccccc4nc32)cc1OC	–	inconclusive: 11.2 µM [inhibitor, partial curve, poor fit]
CC(C)c1ccc(NC(=O)c2cnn(-c3ccccc3)c2NC(=O)c2ccco2)cc1	–	inconclusive: 3.55 µM [inhibitor, full curve, poor fit]
Cc1cccc(-c2nc(C#N)c(NC3CCCCC3)o2)c1	–	inconclusive: 5.62 µM [activator, partial curve, poor fit]
CCOc1ccc2nc(NC(=O)CN3CCN(c4ccccn4)CC3)sc2c1	–	inconclusive: 20 µM [inhibitor, single point]
CCOc1ncccc1C(=O)NCCCSc1ccccc1	–	inconclusive: 1.26 µM [activator, single point]
O=C(O)[C@@H]1CSC2(CCSC2)N1 (stereo partly specified)	inactive: -1.01%	–
CN(C(=O)CSc1nnc(-c2cccs2)o1)C1CCS(=O)(=O)C1 (stereo unspecified)	inactive: 13.1% [at 46.1 µM]	–
O=C(CCCCn1c(=O)[nH]c2ccccc2c1=O)NCc1ccc2c(c1)OCO2	–	inconclusive: 6.31 µM [activator, single point]
Cn1cc(/C=C2\C(=O)NC(=O)N(c3ccccc3)C2=O)c2ccccc21	inactive: 17% [at 46.1 µM]	–
CN(C(=O)Cn1nnc(-c2ccccc2)n1)C1CCS(=O)(=O)C1 (stereo unspecified)	inactive: -0.726%	–
Cc1ccc(SCc2nc(-c3ccncc3)no2)cc1	–	inconclusive: 3.55 µM [activator, partial curve, poor fit]
COC(=O)c1c(C)[nH]c(C=O)c1-c1ccccc1	inactive: 11.5% [at 46.1 µM]	–
S=C(Nc1ccc2nc(-c3ccccn3)c(-c3ccccn3)nc2c1)N1CCCCC1	–	inconclusive: 3.16 µM [activator, single point]
Cc1oncc1C(=O)N1CCCC(CO)(Cc2ccc(F)cc2F)C1 (stereo unspecified)	–	inconclusive: 2 µM [activator, full curve]
O=C(Nc1cccc(Cl)c1)C1C2C=CC3(O2)C1C(=O)N(CCN1CCCCC1)C3C(=O)NC1CCCCC1 (stereo unspecified)	–	inconclusive: 15.8 µM [inhibitor, single point]
COc1ccc(CN2CCC(Oc3ccc(C(=O)N4CCCCC4)cc3)CC2)cc1C	–	inconclusive: 4.47 µM [inhibitor, partial curve, poor fit]
Cc1ccc(S(=O)(=O)/N=C(/NC(=S)Nc2cccc(C)c2)c2ccccc2)cc1	inactive: 16%	–
Cc1c(C(=O)c2ccccc2)c2ccccn2c1CCc1ccccn1	–	inconclusive: 12.6 µM [inhibitor, partial curve, poor fit]
COCC(C)NC(=O)c1ccc2nc(-c3ccccc3)c(-c3ccccc3)nc2c1 (stereo unspecified)	–	inconclusive: 8.91 µM [inhibitor, partial curve, poor fit]
O=C(c1cc(COc2ccc(F)cc2F)on1)N1CC[C@@H]2CCCC[C@H]2C1	inactive: -11.9%	–
COc1ccc(OC)c(/C=N/NC(=O)c2ccc(Cn3cc([N+](=O)[O-])cn3)o2)c1	–	inconclusive: 14.6 µM [inhibitor, partial curve, poor fit]

SMILES	activity change, negative = inhibition	Potency
CCOC(=O)CSc1cc(C)nc2ccc(OC)cc12	inactive: -3.52% [at 46.1 µM]	–
COc1ccccc1NC(=O)C1=C(C)Nc2nc(-c3ccco3)nn2C1c1cccc(C)c1 (stereo unspecified)	inactive: -18% [at 46.1 µM]	–
CCOC(=O)c1c(C)c(C(=O)NCc2ccc(Cl)cc2)c(C)n1C	inactive: -1.23% [at 46.1 µM]	–
O=C(NCCCN1CCOCC1)c1sc2cc([N+](=O)[O-])ccc2c1Cl	–	inconclusive: 3.16 µM [activator, partial curve, poor fit]
Cc1ccc(N2C(=O)C3C4C=CC(CNC(=S)N5CCN(c6cccc(C)c6)C(C)C5)(O4)C3C2=O)cc1 (stereo unspecified)	–	inconclusive: 1.26 µM [inhibitor, full curve]
COc1ccc(S(=O)(=O)N2CCCCCC2)cc1NC(=O)CN1C(=O)NC(C)(c2ccccc2)C1=O (stereo unspecified)	–	inconclusive: 3.55 µM [inhibitor, single point]
C=CCN1C(=O)/C(=C2/Sc3ccccc3N2CC)SC1=S	–	inconclusive: 5.62 µM [inhibitor, single point]
Cc1nn(C)c(C)c1Nc1ccc(N2C(=O)C3C4C=CC(C4)C3C2=O)cc1[N+](=O)[O-] (stereo unspecified)	–	inconclusive: 12.6 µM [inhibitor, single point]
COc1ccc(C(Nc2ccccc2)P(=O)(Oc2ccccc2)Oc2ccccc2)cc1 (stereo unspecified)	inactive: -3.73%	–
CCCCCCC(=O)N/N=C/c1ccco1	–	inconclusive: 0.631 µM [activator, partial curve, poor fit]
O=C(O)CC[C@H](NC(=O)c1ccccc1C(=O)O)C(=O)O	–	inconclusive: 0.0398 µM [inhibitor, full curve]
CCOc1cc(/C=C2\CN(C)C/C(=C\c3ccc(O)c(OCC)c3)C2=O)ccc1O	–	inconclusive: 10 µM [inhibitor, partial curve, poor fit]
Cc1cc(=O)[nH]c(SCC(N)=O)c1C#N	–	inconclusive: 12.6 µM [activator, single point]
CCC(=O)Nc1ccc(C)cc1-c1nc2ccccc2n(CC(=O)c2ccc(C)cc2)c1=O	inactive: -0.286% [at 46.1 µM]	–
CCOC(=O)N1CCC(NC(=O)C2CCCN(Cc3nc(-c4ccc(CC)cc4)oc3C)C2)CC1 (stereo unspecified)	–	inconclusive: 8.91 µM [inhibitor, partial curve, poor fit]
Cc1ccc(CCNC(=O)c2oc(=O)c3ccccc3c2-c2ccc(C)cc2)cc1	–	inconclusive: 35.5 µM [inhibitor, single point]
CCc1ccc(NC2CC(=O)N(CCc3ccc(OC)c(OC)c3)C2=O)cc1 (stereo unspecified)	–	inconclusive: 35.5 µM [inhibitor, single point]
COc1cc2[nH]c(=S)nc(NCc3ccccn3)c2cc1OC	inconclusive: 36.6% [activator] [at 46.1 µM]	–
O=C(c1ccc(F)cc1)c1cnc(Nc2ccccc2)s1	–	inconclusive: 1 µM [activator, partial curve, poor fit]
Cc1nn(-c2ccccn2)c2c1C(c1ccsc1)C1=C(CCCC1=O)N2 (stereo unspecified)	–	inconclusive: 15.8 µM [inhibitor, single point]
COCCSc1nnc(NC(=O)COC)s1	–	inconclusive: 11.6 µM [activator, single point]
CCSc1nc2sc3c(c2c2[n+]1CC(CBr)O2)CCCC3 (stereo unspecified)	–	inconclusive: 5.62 µM [activator, single point]

Structures above containing an aryl thioether with sulfur outside any ring (8):
SMILES	activity change, negative = inhibition	Potency
COc1ccc(NC(=O)Cc2nnc(SCC(=O)NC3CCCCC3C)n2C)cc1 (stereo unspecified)	inactive: 9.83% [at 46.1 µM]	–
CCOc1ncccc1C(=O)NCCCSc1ccccc1	–	inconclusive: 1.26 µM [activator, single point]
CN(C(=O)CSc1nnc(-c2cccs2)o1)C1CCS(=O)(=O)C1 (stereo unspecified)	inactive: 13.1% [at 46.1 µM]	–
Cc1ccc(SCc2nc(-c3ccncc3)no2)cc1	–	inconclusive: 3.55 µM [activator, partial curve, poor fit]
CCOC(=O)CSc1cc(C)nc2ccc(OC)cc12	inactive: -3.52% [at 46.1 µM]	–
Cc1cc(=O)[nH]c(SCC(N)=O)c1C#N	–	inconclusive: 12.6 µM [activator, single point]
COCCSc1nnc(NC(=O)COC)s1	–	inconclusive: 11.6 µM [activator, single point]
CCSc1nc2sc3c(c2c2[n+]1CC(CBr)O2)CCCC3 (stereo unspecified)	–	inconclusive: 5.62 µM [activator, single point]

Remaining list, next part

SMILES	activity change, negative = inhibition	Potency
Cc1ccc(COn2c(-c3ccc(Cl)cc3Cl)nc3ncccc32)cc1	–	inconclusive: 35.5 µM [inhibitor, single point]
COc1ccccc1C(=O)COC(=O)Cc1ccccc1F	inactive: 19.1%	–
COc1ccc(NC(=O)CN(C)C(=O)c2ccccc2CCc2ccccc2)cc1	–	inconclusive: 17.8 µM [inhibitor, single point]
CCCN1C/C(=C/c2cccc([N+](=O)[O-])c2)C(=O)/C(=C/c2cccc([N+](=O)[O-])c2)C1	–	inconclusive: 3.55 µM [inhibitor, partial curve, poor fit]
CCN(CC)S(=O)(=O)c1ccc(-c2nnc(SCC(=O)c3ccc(OC)cc3)o2)cc1	–	inactive
COc1ccc(C2CC(c3ccccc3)=NN2c2ccc(N)cc2)cc1 (stereo unspecified)	–	inconclusive: 0.562 µM [activator, full curve, poor fit]
CC1(C)N=C(N)N=C(N)N1c1cccc(C#N)c1	–	inconclusive: 1.12 µM [inhibitor, full curve, poor fit]
CC(CNc1nc2ccccc2c2nc(-c3ccccc3)nn12)c1ccccc1 (stereo unspecified)	inactive: 11.1% [at 46.1 µM]	–
COc1cccc(CNC2CCCc3ccccc32)c1OC (stereo unspecified)	–	inconclusive: 11.2 µM [inhibitor, partial curve]
C/C(CCN1CCCc2nc(C)c(C)cc21)=N\OC[C@@H](C)[C@H](OCc1ccccc1)C(C)C	–	inactive
COc1ccccc1CN(C)C(=O)c1cc(-c2cccs2)nc2ccccc12	–	inconclusive: 11.2 µM [inhibitor, partial curve, poor fit]
Cc1nc2c(-c3ccccc3)c(C)[nH]n2c(=O)c1Cc1ccc(Br)cc1	–	inconclusive: 7.08 µM [inhibitor, full curve, poor fit]
CCCn1c(SCC(=O)Nc2cccc(NC(C)=O)c2)nnc1C(C)C	–	inconclusive: 1.78 µM [inhibitor, partial curve, poor fit]
CCOc1ccc(NC(=S)Nc2cccc3cnccc23)cc1	inactive: -0.604%	–
Cc1ccc(OCCOc2cccc(Br)c2)c([N+](=O)[O-])n1	–	inconclusive: 1.41 µM [activator, partial curve]
O=C(NC(=S)NCCN1CCOCC1)c1ccccc1Br	–	inconclusive: 0.708 µM [activator, full curve, poor fit]
CC1CCCCN1Cc1c(O)ccc2c(=O)c(-c3ccc(Cl)cc3)coc12 (stereo unspecified)	–	inconclusive: 0.562 µM [activator, partial curve, poor fit]
Cc1ccc(CNC(=O)c2cc(=O)c3cc(C)c(C)cc3o2)cc1	inactive: 9.8% [at 46.1 µM]	–
O=C(O)c1cccc(-n2cccc2/C=C2/NC(=O)N(c3ccc(Cl)cc3)C2=O)c1	–	inconclusive: 10 µM [inhibitor, single point]
CN(C)/C=C/C(=O)c1nnn(C2CCCCC2)c1NC1CCCCC1	–	inconclusive: 16.4 µM [inhibitor, single point]
COc1ccc(C2CC2/C(C)=N/OC(=O)c2cccs2)cc1 (stereo unspecified)	–	inconclusive: 0.891 µM [activator, full curve, poor fit]
O=C(Cc1cccc2ccccc12)NNC(=O)c1cccs1	–	inconclusive: 35.5 µM [activator, single point]

2 compounds drawn at random from those above:
SMILES	activity change, negative = inhibition	Potency
CC1CCCCN1Cc1c(O)ccc2c(=O)c(-c3ccc(Cl)cc3)coc12 (stereo unspecified)	–	inconclusive: 0.562 µM [activator, partial curve, poor fit]
COc1ccc(C2CC(c3ccccc3)=NN2c2ccc(N)cc2)cc1 (stereo unspecified)	–	inconclusive: 0.562 µM [activator, full curve, poor fit]
